Measured values published in US20190256599A1 (GlaxoSmithKline, published 2019).
Results are given in words; binding and its absence hold for the method and conditions named. Some results given as binding are weak or reduced against the parent protein; the word gives no strength. For part of these data: Where a sequence is shown, tags or fusion partners need not be part of it.

Experiments:
human ICOS on cells [1] = target: T1, human ICOS on cells (human, UniProt Q9Y6W8 21-199); experiment: confocal microscopy, fluorescently labelled H2L5 on primary human CD3+ T cells
T1 sequence (looked up): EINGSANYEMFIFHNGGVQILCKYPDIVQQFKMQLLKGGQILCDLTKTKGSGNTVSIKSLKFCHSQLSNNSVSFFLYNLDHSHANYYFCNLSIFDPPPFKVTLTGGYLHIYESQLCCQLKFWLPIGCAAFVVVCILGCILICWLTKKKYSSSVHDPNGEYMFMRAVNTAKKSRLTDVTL

[2] = target: T2, rabbit Fc-tagged recombinant human ICOS (human, UniProt Q9Y6W8 21-140, limits assumed); experiment: BIAcore target capture, legend of FIG. 9A
T2 construct: Generated in-house; also called dimeric human ICOS; Fc-fusion version of the recombinant ICOS protein
T2 sequence (looked up): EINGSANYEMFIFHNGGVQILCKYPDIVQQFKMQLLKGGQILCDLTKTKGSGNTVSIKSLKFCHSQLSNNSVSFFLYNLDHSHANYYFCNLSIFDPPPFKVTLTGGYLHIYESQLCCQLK

[3] = target: T2, rabbit Fc-tagged recombinant human ICOS; experiment: Biacore (SPR) sensorgrams with fitted curves, dimeric human ICOS
[4] = target: T3, recombinant ICOS protein (R&D Systems) (human, UniProt Q9Y6W8 21-141, limits assumed); experiment: MSD competition assay: plate-coated recombinant ICOS, H2L5 IgG4PE titrated, then 1 µg/mL human ICOS ligand (B7-H2) detected with biotinylated anti-ICOS-L and sulfo-tag streptavidin
T3 construct: Bought; also called ICOS receptor
T3 sequence (looked up): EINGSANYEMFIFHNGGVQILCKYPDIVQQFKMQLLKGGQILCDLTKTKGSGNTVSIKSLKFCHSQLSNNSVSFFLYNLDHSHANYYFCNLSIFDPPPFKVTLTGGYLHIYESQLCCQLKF

[5] = target: T3, recombinant ICOS protein (R&D Systems); experiment: MSD competition assay on plate-coated ICOS; blocked ligand: human ICOS ligand at 1 ug/mL
Protocol: MSD plates were incubated overnight at 4° C. with 10 μg/mL recombinant ICOS protein (R&D Systems) diluted in PBS. […] Sulfo-tagged streptavidin at 10 μg/mL in Diluent 100 was used for detection of the biotinylated ligand. All incubations were at room temperature for one hour on a plate shaker unless otherwise noted. The plates were read immediately following MSD Read buffer addition on a MSD MESO Quick Plex SQ 120 and data analyzed on MSD workbench software (Meso-Scale, Rockville, Md.).

human ICOS on cells [6] = target: T1, human ICOS on cells; experiment: time-lapse confocal microscopy, AlexaFluor488-labelled H2L5 IgG4PE 3 µg/mL on anti-CD3 pre-stimulated human T cells in co-culture with dendritic cells
human ICOS on cells [7] = target: T1, human ICOS on cells; experiment: flow cytometry on naive and CD3/CD28 activated CD4 and CD8 T cells
human ICOS on cells [8] = target: T1, human ICOS on cells; experiment: flow cytometry on activated human CD4+ and CD8+ T cells
human ICOS on cells [9] = target: T1, human ICOS on cells; experiment: flow cytometry on human T cells (FIG. 43A)
human ICOS on cells [10] = target: T1, human ICOS on cells; experiment: flow cytometry, H2L5 IgG4PE 20 ug/mL on CD4+ and CD8+ T cells of healthy donor PBMC, detected with anti-human IgG kappa light chain FITC
human ICOS on cells [11] = target: T1, human ICOS on cells; experiment: legend of FIGS. 43A-43B
human ICOS on cells [12] = target: T1, human ICOS on cells; experiment: flow cytometry on naive and activated CD4+ and CD8+ T cells from healthy donor PBMC
human ICOS on cells [13] = target: T1, human ICOS on cells; experiment: confocal microscopy, Alexa488-labelled H2L5 IgG4PE on primary CD4+ T cells, time after addition of the antibody
human ICOS on cells [14] = target: T1, human ICOS on cells; experiment: confocal microscopy, AlexaFluor488-labelled H2L5 on activated primary human CD3+ T cells
[15] = target: T2, rabbit Fc-tagged recombinant human ICOS; experiment: quantitative BIAcore target capture approach

Measured: binding

B1: H2L5 IgG4PE (antibody, V domains shown)
VH: QVQLVQSGAEVKKPGSSVKVSCKASGYTFTDYAMHWVRQAPGQGLEWMGLISIYSDHTNYNQKFQGRVTITADKSTSTAYMELSSLRSEDTAVYYCGRNNYGNYGWYFDVWGQGTTVTVSS
VL: EIVLTQSPATLSLSPGERATLSCSASSSVSYMHWYQQKPGQAPRLLIYDTSKLASGIPARFSGSGSGTDYTLTISSLEPEDFAVYYCFQGSGYPYTFGQGTKLEIK
notes: Humanized variant of murine clone 422.2; human IgG4 with S228P and L235E (EU numbering), called IgG4PE; also called H2L5 hIgG4PE; ICOS IgG4PE
binds: human ICOS on cells [1] | [2] | [3] | [4] | [5] | human ICOS on cells [6] | human ICOS on cells [7] | human ICOS on cells [8] | human ICOS on cells [9] | human ICOS on cells [10] | human ICOS on cells [11] | human ICOS on cells [12] | human ICOS on cells [13] | human ICOS on cells [14] | [15]
